Laboratory results as given in the M2OR odorant receptor database.
Some of the results follow. The calls were merged from several studies; some rest on single wells.

system: T1, OR5DG; conditions: stereoisomer not certain
T1 sequence (whole entry): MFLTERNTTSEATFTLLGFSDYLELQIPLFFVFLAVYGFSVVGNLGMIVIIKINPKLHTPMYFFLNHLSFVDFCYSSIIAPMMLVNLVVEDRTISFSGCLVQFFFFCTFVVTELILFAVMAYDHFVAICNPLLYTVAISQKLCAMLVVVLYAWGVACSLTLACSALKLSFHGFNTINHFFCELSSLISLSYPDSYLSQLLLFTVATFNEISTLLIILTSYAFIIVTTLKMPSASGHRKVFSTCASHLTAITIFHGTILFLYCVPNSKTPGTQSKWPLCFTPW
Outline: (§1)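 Assay methods differ from source to source, frequently being transient luciferase assays in mammalian cell lines. For each receptor–molecule pair, the label responsive (active) applies when the original authors judged the measured signal statistically different from baseline, and non-responsive (inactive) applies otherwise.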

| Compound | odorant receptor agonist call |
| --- | --- |
| O=C1CCCCC1 | inactive |
| COC(=O)c1ccccc1O | inactive |
| CC1CCC(C(C)C)C(O)C1 (configuration not stated) | active |
| CC12C=CCC1C1CCC3=CC(=O)CCC3(C)C1CC2 (configuration not stated) | inactive |
| c1ccc(Oc2ccccc2)cc1 | inactive |
| CC(C)CC(=O)O | inactive |
| CCCCCCCCCCC=O | inactive |
| O=C1CCCCCCCCCCCC(=O)OCCO1 | inactive |
| CC1=NC(C)SC1C (configuration not stated) | inactive |
| CCCCCC(C)=O | inactive |
| CC12CCC(CC1)C(C)(C)O2 | inactive |
| O=CCc1ccccc1 | inactive |
| CC(=O)C(C)=O | inactive |
| CC(C)CCC(=O)O | inactive |
| CC(C)C=O | inactive |
| CC12C=CCC1C1CCC3CC(=O)CCC3(C)C1CC2 (configuration not stated) | inactive |
| c1cnccn1 | inactive |
| C=CCSCC=C | inactive |
| COC(=O)c1ccccc1 | inactive |
| CCCC(=O)O | inactive |
| COc1cc(C)ccc1O | inactive |
| CCC=CCCO | inactive |
| CC(C)C(=O)O | inactive |
| CC(=O)OCC=C(C)CCC=C(C)C | inactive |

system: T2, OR5DI; conditions: stereoisomer not certain
T2 sequence (whole entry): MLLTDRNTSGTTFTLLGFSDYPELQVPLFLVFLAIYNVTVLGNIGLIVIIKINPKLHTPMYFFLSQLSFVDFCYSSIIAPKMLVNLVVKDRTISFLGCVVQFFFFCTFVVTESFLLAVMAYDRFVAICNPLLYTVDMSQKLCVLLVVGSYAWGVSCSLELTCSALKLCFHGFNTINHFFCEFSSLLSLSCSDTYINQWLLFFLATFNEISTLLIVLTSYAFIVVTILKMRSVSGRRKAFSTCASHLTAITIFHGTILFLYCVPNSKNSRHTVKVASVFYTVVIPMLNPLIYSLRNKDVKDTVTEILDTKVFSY
Outline: as §1

| Compound | odorant receptor agonist call |
| --- | --- |
| O=C1CCCCC1 | inactive |
| COC(=O)c1ccccc1O | inactive |
| CC1CCC(C(C)C)C(O)C1 (configuration not stated) | inactive |
| CC12C=CCC1C1CCC3=CC(=O)CCC3(C)C1CC2 (configuration not stated) | inactive |
| c1ccc(Oc2ccccc2)cc1 | inactive |
| CC(C)CC(=O)O | inactive |
| CCCCCCCCCCC=O | inactive |
| O=C1CCCCCCCCCCCC(=O)OCCO1 | inactive |
| CC1=NC(C)SC1C (configuration not stated) | inactive |
| CCCCCC(C)=O | inactive |
| CC12CCC(CC1)C(C)(C)O2 | inactive |
| O=CCc1ccccc1 | inactive |
| CC(=O)C(C)=O | inactive |
| CC(C)CCC(=O)O | inactive |
| CC(C)C=O | inactive |
| CC12C=CCC1C1CCC3CC(=O)CCC3(C)C1CC2 (configuration not stated) | active |
| c1cnccn1 | inactive |
| C=CCSCC=C | inactive |
| COC(=O)c1ccccc1 | inactive |
| CCCC(=O)O | inactive |
| COc1cc(C)ccc1O | inactive |
| CCC=CCCO | inactive |
| CC(C)C(=O)O | inactive |
| CC(=O)OCC=C(C)CCC=C(C)C | inactive |

system: T3, OR5F1; conditions: stereoisomer not certain
T3 sequence (whole entry): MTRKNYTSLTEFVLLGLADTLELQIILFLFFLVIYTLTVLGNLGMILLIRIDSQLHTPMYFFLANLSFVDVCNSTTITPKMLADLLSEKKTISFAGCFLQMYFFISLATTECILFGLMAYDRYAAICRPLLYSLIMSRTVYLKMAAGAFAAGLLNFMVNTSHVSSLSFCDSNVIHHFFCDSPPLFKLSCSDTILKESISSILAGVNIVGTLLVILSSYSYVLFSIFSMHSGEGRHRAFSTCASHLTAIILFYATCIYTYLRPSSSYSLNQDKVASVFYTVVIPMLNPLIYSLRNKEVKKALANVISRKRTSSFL
Outline: as §1

| Compound | odorant receptor agonist call |
| --- | --- |
| O=C1CCCCC1 | inactive |
| COC(=O)c1ccccc1O | inactive |
| CC1CCC(C(C)C)C(O)C1 (configuration not stated) | inactive |
| CC12C=CCC1C1CCC3=CC(=O)CCC3(C)C1CC2 (configuration not stated) | inactive |
| c1ccc(Oc2ccccc2)cc1 | inactive |
| CC(C)CC(=O)O | inactive |
| CCCCCCCCCCC=O | inactive |
| O=C1CCCCCCCCCCCC(=O)OCCO1 | inactive |
| CC1=NC(C)SC1C (configuration not stated) | inactive |
| CCCCCC(C)=O | inactive |
| CC12CCC(CC1)C(C)(C)O2 | inactive |
| O=CCc1ccccc1 | inactive |
| CC(=O)C(C)=O | inactive |
| CC(C)CCC(=O)O | inactive |
| CC(C)C=O | inactive |
| CC12C=CCC1C1CCC3CC(=O)CCC3(C)C1CC2 (configuration not stated) | active |
| c1cnccn1 | inactive |
| C=CCSCC=C | inactive |
| COC(=O)c1ccccc1 | inactive |
| CCCC(=O)O | inactive |
| COc1cc(C)ccc1O | inactive |
| CCC=CCCO | inactive |
| CC(C)C(=O)O | inactive |
| CC(=O)OCC=C(C)CCC=C(C)C | active |
